US20190137501A1
No constants are given. Whether binding was seen depends on the method and setting. Some entries that bind do so weakly or less than the wild type.

Sequences of proteins named here, by UniProt entry; tags and fusion partners are left off. A change or cut given only in a name is not applied to a line headed by its entry. A line that says so, or that is headed by a name, gives the form on record, which may keep a tag or linker.
Mena (Q8N8S7, form named): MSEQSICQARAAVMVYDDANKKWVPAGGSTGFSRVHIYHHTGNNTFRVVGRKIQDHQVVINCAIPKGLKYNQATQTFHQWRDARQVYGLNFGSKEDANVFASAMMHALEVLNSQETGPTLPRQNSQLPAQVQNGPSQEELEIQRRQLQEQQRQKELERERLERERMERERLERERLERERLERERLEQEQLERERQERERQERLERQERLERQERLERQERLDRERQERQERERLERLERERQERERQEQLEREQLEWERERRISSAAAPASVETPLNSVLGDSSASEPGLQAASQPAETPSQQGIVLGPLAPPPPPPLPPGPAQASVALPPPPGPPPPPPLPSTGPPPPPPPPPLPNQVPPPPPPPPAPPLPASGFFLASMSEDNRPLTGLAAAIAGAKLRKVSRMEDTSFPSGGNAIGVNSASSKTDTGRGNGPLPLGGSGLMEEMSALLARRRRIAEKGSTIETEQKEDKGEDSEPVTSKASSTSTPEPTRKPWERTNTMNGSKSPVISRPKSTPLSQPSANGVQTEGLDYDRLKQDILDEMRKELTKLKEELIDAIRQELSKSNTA

What was measured:
[1] = target: epidermal growth factor receptor (EGFR) (Homo sapiens (Human)) (UniProt P00533); test: PLA in serum-starved or 0.25 nM EGF-stimulated MDA-MB231 cells
[2] = target: epidermal growth factor receptor (EGFR) (Homo sapiens (Human)) (UniProt P00533); test: PLA in MDA-MB231 cells; shows proximity within 40 nm
[3] = target: epidermal growth factor receptor (EGFR) (Homo sapiens (Human)) (UniProt P00533); test: summary of PLA

Measured: binding

Mena (from UniProt Q8N8S7 1-570)
binds: all assays above
